Results deposited as PubChem BioAssay AID743454 (Peter MacCallum Cancer Centre, 2014).
Assay: 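Search for knock-downs that restore vorinostat killing in resistant colon cancer cells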 (primary screen). Cell system: human HCT116-VR colon cancer cells, selected for vorinostat resistance. Reagents: siRNA pool against human genes, 40 nM siRNA pool. Timing: vorinostat for 24 h, read-out about 72 h after transfection. Conditions: vorinostat at 2.5 µM final. Detection: 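Two measures, CellTiter-Fluor viability and luminescent caspase 3/7 activity, each as fold change against same-plate mock wells, mean of duplicates, then screen-wide robust z-score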. Scale: viability robust z-score: higher = more viable cells than screen typical; caspase robust z-score: higher = more caspase 3/7 activity than screen typical. Call rule: 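Hits are knock-downs in viability class RV1/RV2 or caspase class CA1/CA2, excluding ones that killed cells in the no-drug cell-count arm; hits then retested with single siRNAs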.
Shown is an unselected part of about 18,000 reagents. In the full data, 450 (2.5%) are marked active. 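Single biological run; no consistent viability z cut-off exists, so the class columns, not z-scores, define the calls.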 No sequences are given here.

no.	Gene	viability hit class	caspase hit class	viability robust z-score	caspase robust z-score	outcome
1	DNAJC5B (GeneID 85479)	no change	no change	0.38	-0.94	inactive
2	C1orf87 (GeneID 127795)	no change	no change	0.47	1.28	inactive
3	OSTCP1 (GeneID 202459)	no change	no change	0.64	-0.14	inactive
4	NPIPA1 (GeneID 9284)	no change	no change	0.32	-0.92	inactive
5	RASGEF1C (GeneID 255426)	no change	no change	-0.62	0.88	inactive
6	TRMT5 (GeneID 57570)	no change	no change	0.6	-0.43	inactive
7	PLD2 (GeneID 5338)	no change	no change	0.28	-0.41	inactive
8	ZBTB7C (GeneID 201501)	no change	no change	-0.08	-0.52	inactive
9	STAT5A (GeneID 6776)	no change	no change	-0.4	-0.6	inactive
10	ADH4 (GeneID 127)	no change	no change	-1.09	0.64	inactive
11	RPL18 (GeneID 6141)	no change	no change	-5.16	-0.96	inactive
12	KHNYN (GeneID 23351)	no change	no change	-0.07	-0.22	inactive
13	RLIM (GeneID 51132)	no change	no change	0.73	0.06	inactive
14	TMEM70 (GeneID 54968)	no change	no change	1.03	-0.29	inactive
15	CCL22 (GeneID 6367)	no change	no change	0.16	-1.21	inactive
16	RRS1 (GeneID 23212)	no change	no change	-1.18	3.08	inactive
17	PEX26 (GeneID 55670)	no change	no change	-1.32	0.88	inactive
18	ZBTB47 (GeneID 92999)	no change	no change	-0.46	0.8	inactive
19	RCOR1 (GeneID 23186)	no change	no change	-0.82	-0.36	inactive
20	UBA2 (GeneID 10054)	no change	no change	-0.95	-0.68	inactive
21	ERICH1 (GeneID 157697)	no change	no change	-0.28	-0.91	inactive
22	P3H1 (GeneID 64175)	no change	no change	-2.24	-0.9	inactive
23	CACNA1S (GeneID 779)	no change	no change	0.04	4.29	inactive
24	GPSM2 (GeneID 29899)	no change	no change	0.68	-0.69	inactive
25	GLIPR1L2 (GeneID 144321)	no change	no change	-0.16	2.01	inactive
26	CNTNAP3 (GeneID 79937)	no change	no change	-0.38	-0.17	inactive
27	USP27X (GeneID 389856)	no change	no change	1.52	-0.76	inactive
28	SEPTIN2 (GeneID 4735)	no change	no change	1	0.12	inactive
29	C6orf58 (GeneID 352999)	no change	no change	1.29	0.56	inactive
30	LRCH1 (GeneID 23143)	no change	no change	0.44	-0.35	inactive
31	CNGA4 (GeneID 1262)	no change	no change	-0.63	1.54	inactive
32	DMRT3 (GeneID 58524)	no change	no change	0.1	2.29	inactive
33	TLCD1 (GeneID 116238)	no change	no change	0.12	-0.96	inactive
34	SNAI3 (GeneID 333929)	no change	no change	-2.12	0.28	inactive
35	PPP2R2A (GeneID 5520)	no change	CA1 (caspase activation)	-1.62	6.19	active
36	CLDND2 (GeneID 125875)	no change	no change	1.5	1.77	inactive
37	TCEAL8 (GeneID 90843)	no change	no change	0.35	0.14	inactive
38	PLAAT1 (GeneID 57110)	no change	no change	-0.84	-0.92	inactive
39	NIPAL1 (GeneID 152519)	no change	no change	-0.67	-0.6	inactive
40	PCDH15 (GeneID 65217)	no change	no change	1.4	0.56	inactive
41	CHGB (GeneID 1114)	no change	no change	0.78	0.04	inactive
42	USP46 (GeneID 64854)	no change	no change	0.31	-0.72	inactive
43	CACNA1D (GeneID 776)	no change	no change	0.42	0.06	inactive
44	OSMR (GeneID 9180)	no change	no change	-0.07	-0.62	inactive
45	PDK4 (GeneID 5166)	no change	no change	-1.19	2.46	inactive
46	PLAC4 (GeneID 191585)	no change	no change	0.82	0.28	inactive
47	TAF7 (GeneID 6879)	no change	no change	-0.31	-0.48	inactive
48	FHIT (GeneID 2272)	no change	no change	0.8	-0.11	inactive
49	MGAT4D (GeneID 152586)	no change	no change	0.76	-0.38	inactive
50	PLXNC1 (GeneID 10154)	no change	no change	0.78	-1.21	inactive
51	PLPP7 (GeneID 84814)	no change	no change	-1.31	0.52	inactive
52	EPHA10 (GeneID 284656)	no change	no change	-0.81	-0.48	inactive
53	CLK2 (GeneID 1196)	no change	no change	-0.09	-0.42	inactive
54	UBASH3A (GeneID 53347)	no change	no change	-0.34	0.03	inactive
55	SNRPA1 (GeneID 6627)	RV2 (reduced viability)	no change	-3.27	-0.96	active
56	EDDM3A (GeneID 10876)	no change	no change	0.96	-0.57	inactive
57	BAGE5 (GeneID 85316)	no change	no change	-1.4	1.36	inactive

A stretch taken from the entries so far, as a working copy:
no.	Gene	viability hit class	caspase hit class	viability robust z-score	caspase robust z-score	outcome
32	DMRT3 (GeneID 58524)	no change	no change	0.1	2.29	inactive
33	TLCD1 (GeneID 116238)	no change	no change	0.12	-0.96	inactive
34	SNAI3 (GeneID 333929)	no change	no change	-2.12	0.28	inactive
35	PPP2R2A (GeneID 5520)	no change	CA1 (caspase activation)	-1.62	6.19	active
36	CLDND2 (GeneID 125875)	no change	no change	1.5	1.77	inactive
37	TCEAL8 (GeneID 90843)	no change	no change	0.35	0.14	inactive
38	PLAAT1 (GeneID 57110)	no change	no change	-0.84	-0.92	inactive
